This is one part of the list.
B1: il2ra_site1_2b5i_normal_mot_HHH_b2_04910_000000118_0001_1_19_H_._HHH_b1_04969_0001_0000600021_0000001_0_af2pred_dldesign_0_af2pred (protein)
chain: SSSSSNKGAEALKLFKETDEKFKTVSDEEAKKLLEETLEELKKLKKNVLVRMVEAALAELSSSSS
B2: il2ra_site2_2erj_normal_mot_6bd1339e93f6fdda22195c76da45ec5d_0001_000000136_0001_37_51_H_._HHH_b1_03999_0001_0000400017_0000001_1_af2pred_0001_1_af2pred_swapped (protein)
chain: SSSSDLEEEVRRLVEEAEELLERGDPERAAAVLLEAAHLAARNRNDELLELVARLFTRVARSSSS
B3: il2ra_site1_2b5i_normal_mot_HHH_b1_01949_af2_000000041_0001_1_19_H_._HHH_b1_06937_af2_0001_0000300018_0000001_0_af2pred_0001_af2pred_1 (protein)
chain: SSSSDEEYEEVDELYRRASELFRRGNKEEARELLEQAIRIAEERGDERVVKDLRHFLEAISSSSS
B4: il2ra_site2_3nfp_normal_mot_0136b98644bc9a8eb58b95019b738ebb_0001_1_000000071_0001_1_13_H_._HHH_b2_05054_0001_0000400019_0000001_0 (protein)
chain: SSSSSAEEDAEKALEILRDRGDEESLKELEELLKKVKEEGDPELRRELDRLLTKIYEELLSSSSS
B5: il2ra_site1_2b5i_sap_18_mot_e546d17bf4683a1997b2b4e1ffd0191e_0001_1_af2_000000072_0001_20_33_H_._HHH_b2_01886_0001_0000500046_0000001_0_0001 (protein)
chain: SSSSDEIDQEIDRLFHEASEAWRKGNREEAEKLLEEAIELARRGNDENILKDLEQMLERLGSSSS
B6: il2ra_site1_2b5i_normal_mot_HHH_b1_02217_af2_000000060_0001_42_56_H_._HHH_b1_08682_0001_0000300036_0000001_0_af2pred_dldesign_0_af2pred (protein)
chain: SSSSSSIDEIEKGFKEMERLRRAGKLEEAKELLEKNIKLAEEAGDKKTAAELKAYLERLESSSSS
B7: il2ra_site1_1z92_sap_26_mot_HHH_b2_02379_000000163_0001_38_52_H_._HHH_b1_02798_0001_0000200014_0000001_0_0001_af2pred_0001_af2pred_1 (protein)
chain: SSSSDLERQLRIVVRLAVEIAGLSEEDQKILEEVVEELVERGVSFKEAFQIIDRVAQELAESSSS
B8: il2ra_site1_3nfp_sap_15_mot_HHH_b2_04910_af2_000000236_0001_1_18_H_._HHH_b1_05877_0001_0000700066_0000001_0_0001_af2pred_0001_af2pred_1_swapped (protein)
chain: SSSSDEEVTRLIERALELAFEGNEEEVHKVLEEAERLARELNDPKLEELVERLQEQLEKLESSSS
B9: il2ra_site2_3nfp_sap_19_mot_HHH_b2_02633_000000119_0001_1_18_H_._HHH_b2_08153_0001_0000200006_0000001_0_0001 (protein)
chain: SSSSDVEEEVERLLEEIRRLIEEGDEEKAKRLLREVAHLAVEANNWELFARVAELATELFSSSSS
B10: il2ra_site2_2erj_normal_mot_HHH_b2_06646_af2_000000081_0001_19_36_H_._HHH_b2_06250_0001_0000200012_0000001_1 (protein)
chain: SSSSSSDAEELVRELLEEAREIEDLRELYRVLVEALRIASEFQDEEAQELILEFLEEQSSSSSSS
B11: il2ra_site2_2erj_sap_23_mot_HHH_b2_03173_af2_000000175_0001_41_57_H_._HHH_b2_04652_0001_0000800048_0000001_0_0001_af2pred_0001_af2pred (protein)
chain: SSSSSSDEEEEEVRELLEEAKRIKNLREAYEVLRRAAELALELNNPELIQLVDEVARESSSSSSS
B12: il2ra_site2_2erj_sap_19_mot_HHH_b1_07186_000000032_0001_43_57_H_._HHH_b1_03780_af2_0001_0000100003_0000001_0_0001 (protein)
chain: SSSSDETSEIADRAFELAQRLFKNGNPEEAEEVLEEAIRLLEELGDPDLAETLRALVRFTKSSSS
B13: il2ra_site1_1z92_normal_mot_HHH_b2_07744_000000167_0001_23_40_H_._HHH_b1_05017_af2_0001_0000200009_0000001_0 (protein)
chain: SSSSDEELAVELLEKAARLAAEAGDPEKAQKFLEFAIEHAEDLGDEELVEELRRLVEELGSSSSS
B14: il2ra_site1_3nfp_sap_18_mot_HHH_b2_05712_000000064_0001_1_19_H_._HHH_b2_05948_0001_0000300006_0000001_0_0001_af2pred_dldesign_0_af2pred (protein)
chain: SSSSSDPRAALERASELHTAGKYDEARALLEALLEEVTAAKRAALARFVERCLRALEKASSSSSS
B15: il2ra_site1_2b5i_normal_mot_f5ff40796168375b462bec8614a1db4a_0001_1_000000138_0001_53_65_H_._56b0b67d579d3eef2422ecd748522aa9_0001_0001_0000300038_0000001_0_af2 … (protein)
chain: SLEEIAEELRKKNPEAYKLLKMAVKLLKRLGVPEEEIEKLLLELKEKEGSLEKATKALLEYALSQ
B16: il2ra_site2_2erj_normal_mot_6bd1339e93f6fdda22195c76da45ec5d_0001_000000136_0001_37_51_H_._HHH_b2_06260_0001_0000100003_0000001_0_af2pred_0001_af2pred (protein)
chain: SSSSSEDEERVEELLEQAEEAAKRDPEKALHLLFEAMEIALKSDNEELLKLVLEVSHRIAESSSS
B17: il2ra_site2_2erj_normal_mot_HHH_b1_08185_000000063_0001_41_55_H_._HHH_b2_00974_af2_0001_0000700045_0000001_0 (protein)
chain: SSSSSSDHAEEVVRELVEELGLSEEDEEKLKESAKIALSRGADERLIERYLRLAAEDISSSSSSS
B18: il2ra_site1_3nfp_sap_14_mot_HHH_b1_01540_000000276_0001_42_56_H_._HHH_b1_07396_0001_0000200020_0000001_0_0001_af2pred_0001_af2pred_1 (protein)
chain: PAEEFLERELRRLGVPPEEIEEIREVFEKLARLATKEAFRLVDRLLQLVAKGDPEEVKKLAEEIK
B19: il2ra_site1_3nfp_sap_16_mot_HHH_b2_04095_af2_000000004_0001_43_56_H_._HHH_b1_08279_af2_0001_0000300005_0000001_0_0001_af2pred_0001_af2pred_1 (protein)
chain: SSSSTEKLERAEELIKEVRRLLREGNPEEAEKLLEEMKELAEELNDPILEQLVRIAEERIKSSSS
B20: il2ra_site2_2erj_normal_mot_c2bf78bdce995293a161f7082e24b401_0001_af2_000000082_0001_17_32_H_._HHH_b2_01340_0001_0000300055_0000001_0 (protein)
chain: SSSSSLEELYELANLVLELLYRGNPEEARKVLEQLEELAEELGSDNAREIAEWLKEHIEGSSSSS
B21: il2ra_site1_2b5i_normal_mot_HHH_b2_04910_000000118_0001_1_19_H_._HHH_b1_07294_af2_0001_0000100005_0000001_0_af2pred_dldesign_0_af2pred (protein)
chain: SSSSSSKEALELFLKANEAYQAGNYEEAKKLLEEALEKAKAAGMTALVKMIESALESLSSSSSSS
B22: il2ra_site2_2erj_normal_mot_HHH_b2_05804_000000098_0001_44_58_H_._HHH_b2_05738_af2_0001_0000100013_0000001_0 (protein)
chain: SSSSDEAWERVAELLIQALELFKEGNPEEAKELLEEAREVAEEANSPFLERYVEFARRALSSSSS
B23: il2ra_site2_3nfp_sap_23_mot_HHH_b2_07840_000000026_0001_18_34_H_._HHH_b1_06020_0001_0000700062_0000001_0_0001_af2pred_0001_af2pred (protein)
chain: SDLAKERLEEAKERGTLEEYLRELLRLSAERAGNPESATLMLLIKAELLNDPEAEELVEELAEQT
B24: il2ra_site2_3nfp_normal_mot_HHH_b2_07946_000000046_0001_20_36_H_._HHH_b2_01051_0001_0000100002_0000001_0 (protein)
chain: SSSSSDEHEEEVRELLEEAKKIDDEFERFAVLADAAAIAAQANDEELLEEVLEVSARLRHSSSSS

Target: il2ra, P01589
Assay: yeast display titration

Apparent Kd, inactive:
B1 no binding seen
B2 no binding seen
B3 no binding seen
B4 no binding seen
B5 no binding seen
B6 no binding seen
B7 no binding seen
B8 no binding seen
B9 no binding seen
B10 no binding seen
B11 no binding seen
B12 no binding seen
B13 no binding seen
B14 no binding seen
B15 no binding seen
B16 no binding seen
B17 no binding seen
B18 no binding seen
B19 no binding seen
B20 no binding seen
B21 no binding seen
B22 no binding seen
B23 no binding seen
B24 no binding seen

2 neighbouring entries out of the list so far, quoted:
Apparent Kd, inactive:
B16 no binding seen
B17 no binding seen
